# Measurements: patent US20200140826A1, “Maintenance and Expansion of Pancreatic Progenitor Cells” (AGENCY FOR SCIENCE, TECHNOLOGY AND RESEARCH, priority 2017, published 2020)
# For at least one compound, name, drawing or mass did not settle the structure.
# Tested on: cPP cells
# Experiment: Omission of individual components from complete cPP culture medium on 3T3-J2 feeders (phase contrast, qRT-PCR)
# Assay type: cell-based, human
# Conditions: component individually omitted from complete medium
# Method: Gentle cell dissociation reagent (STEMCELL Technologies, 07174) was used to passage cPP cells as aggregates that were then seeded at a 1:6 split ratio onto a layer of 3T3-J2 feeders (0.5×10^6 to 1×10^6 cells/cm^2) in medium composed of advanced DMEM/F12 (Thermo Fisher Scientific, 21634010), 2 mM L-glutamine (Thermo Fisher Scientific, 25030), 100 U/mL penicillin/streptomycin (Thermo Fisher Scientific, 15140122), 1× N2 supplement (Thermo Fisher Scientific, 17502-048), 1× B27 supplement (Thermo Fisher Scientific, 17504-044), 30 nM dexamethasone (STEMCELL Technologies, 72092), 50 ng/mL EGF (R&D Systems, 236-EG-200), 50 ng/mL FGF10 (Source Bioscience, ABC144), 3 μM RA (Sigma, R2625), 10 μM SB431542 (Calbiochem, 616464), and 1 μM DAPT (Sigma, D5942). If plating single cPP cells, complete medium was supplemented with 10 μM Y27632 for the first 48 hr (Sigma, Y0503). Medium was completely replenished every 2-3 days.
# RNA was isolated from samples using an RNeasy mini kit (Qiagen, cat # 74104) and reverse transcribed to generate cDNA using a high-capacity reverse transcription kit and random hexamer primers (Applied Biosystems, 4368814,1 μg RNA per 20 μL reaction). Quantitative RT-PCR was carried out using SYBR Select Mastermix (Applied Biosystems, 4472908). Data were analyzed using the ΔΔCT method, and normalized to expression of the housekeeping gene TBP in each sample. […]
compound,measurement,setting,value
"CC1=C(/C=C/C(C)=C/C=C/C(C)=C/C(=O)O)C(C)(C)CCC1 [RA, retinoic acid]",Effect of removing the component on PDX1 / SOX9 expression (qRT-PCR),6 days,increased PDX1 expression
same,"Effect of removing the component on cPP expansion, colony size and morphology",cPP cells cultured 6 days on 3T3-J2 feeders,prevented cPP expansion
